The supplement of paper PMC8256030
“And” between values parts separate entries of the source, which are not always exact repeats. Identical values can stand only once. The list shows a part of the results. Repeats in this data set agree poorly, so a single value says little.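 HEK293T cells were given each compound shortly before transfection with a reporter in which red mCherry is followed by the SARS-CoV-2 frameshift element and then GFP in the −1 frame, so GFP appears only after frameshifting.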

Tests used:
[1] = test system: SARS-CoV-2 -1 PRF reporter mCherry-FSE-GFP(-1); assay: mCherry (red) intensity as percent of control; higher = higher upstream reporter expression; conditions: 10 µM; 24 h; HEK293T
[2] = test system: SARS-CoV-2 -1 PRF reporter mCherry-FSE-GFP(-1); assay: percent effect, decrease of GFP/mCherry ratio (-1 PRF reporter) relative to controls; higher = stronger frameshift inhibition; conditions: 10 µM; 24 h; HEK293T

Row | Structure (SMILES) | mCherry [1] | percent effect [2]
1 | CCC(=O)c1ccc(O)cc1 [paroxypropione] | 98.7% | -0.277%
2 | CC(C)(O)CC(C)(O)c1ccc(Cl)cc1 (configuration not stated) [fenpentadiol] | 102% | -0.138%
3 | O=C(O)COc1ccccc1/C=N/NC(=O)c1ccncc1 [aconiazide] | 147% | -9.61%
4 | Cc1cccc(Nc2ccccc2C(=O)O)c1C [mefenamic acid] | 90.2% and 102% | 0.475% and 5.38%
5 | CC[C@H]1OC(=O)[C@H](C)C(=O)[C@H](C)[C@@H](O[C@@H]2O[C@H](C)C[C@H](N(C)C)[C@H]2O)[C@](C)(OC)C[C@@H](C)C(=O)[C@H](C)[C@H]2N(CCCCn3cnc(-c4cccnc4)c3)C(=O)O[C@]12C [telithromycin] | 106% | -1.01%
6 | CC(Cc1ccccc1)N(C)C(=O)Cn1nc(-c2ccccc2)ccc1=O (configuration not stated) [isamfazone] | 83% | -3.43%
7 | CC(N/C(=N\C#N)Nc1ccncc1)C(C)(C)C (configuration not stated) | 92.2% | -3.46%
8 | CC1(C)S[C@@H]2[C@H](NC(=O)[C@H](N)c3ccc(O)cc3)C(=O)N2[C@H]1C(=O)O | 90% | 2.27%
9 | CNC(=O)[C@@H](NC(=O)[C@H](CC(C)C)[C@H](O)C(=O)NO)C(C)(C)C [marimastat] | 68.8% | -12.9%
10 | CCC(=O)O[C@]1(C(=O)CCl)[C@@H](C)C[C@H]2[C@@H]3CCC4=CC(=O)C=C[C@]4(C)[C@@]3(F)[C@@H](O)C[C@@]21C | 140% | 2.81%
11 | CCOC(=O)[C@H]1O[C@@H]1C(=O)N[C@@H](CC(C)C)C(=O)NCCC(C)C [aloxistatin] | 118% | -0.00887%
